These are yes or no findings as the source states them, for the method shown. In cells and extracts the contact can be indirect. Some results given as binding are weak or reduced against the parent protein; the word gives no strength.

By UniProt entry, the sequences of proteins in these tests, tags left out.
UniProt Q8R4B8: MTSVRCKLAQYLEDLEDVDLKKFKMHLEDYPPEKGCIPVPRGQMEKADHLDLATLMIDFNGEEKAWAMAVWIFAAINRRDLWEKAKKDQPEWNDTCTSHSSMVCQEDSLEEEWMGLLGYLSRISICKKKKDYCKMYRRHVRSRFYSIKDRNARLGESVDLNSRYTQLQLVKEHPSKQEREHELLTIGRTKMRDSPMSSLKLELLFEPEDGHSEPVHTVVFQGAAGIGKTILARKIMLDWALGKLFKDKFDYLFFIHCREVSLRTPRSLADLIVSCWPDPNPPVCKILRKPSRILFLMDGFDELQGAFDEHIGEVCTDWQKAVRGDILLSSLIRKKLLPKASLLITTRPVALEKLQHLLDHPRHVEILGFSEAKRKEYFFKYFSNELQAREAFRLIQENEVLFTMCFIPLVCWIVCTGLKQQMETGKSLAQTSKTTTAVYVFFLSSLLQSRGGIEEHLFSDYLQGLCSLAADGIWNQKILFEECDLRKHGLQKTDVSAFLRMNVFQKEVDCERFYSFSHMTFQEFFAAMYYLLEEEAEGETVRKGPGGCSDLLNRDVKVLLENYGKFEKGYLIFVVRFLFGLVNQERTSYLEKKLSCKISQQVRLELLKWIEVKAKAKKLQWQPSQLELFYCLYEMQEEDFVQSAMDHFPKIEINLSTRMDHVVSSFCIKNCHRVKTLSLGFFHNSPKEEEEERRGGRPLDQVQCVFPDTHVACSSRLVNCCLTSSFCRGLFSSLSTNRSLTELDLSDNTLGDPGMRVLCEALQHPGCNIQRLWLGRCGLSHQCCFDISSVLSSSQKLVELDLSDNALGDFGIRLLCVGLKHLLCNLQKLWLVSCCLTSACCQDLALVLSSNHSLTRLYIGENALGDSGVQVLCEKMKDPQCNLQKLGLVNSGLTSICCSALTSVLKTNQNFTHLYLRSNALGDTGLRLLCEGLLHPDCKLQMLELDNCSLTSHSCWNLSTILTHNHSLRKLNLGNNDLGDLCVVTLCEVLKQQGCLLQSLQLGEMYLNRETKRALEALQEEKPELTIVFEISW

Results on one molecule are retold here after paper PMC8283807.

Test [1] deals with NLR family pyrin domain containing 3 (NLRP3) (mouse (endogenous in mouse primary microglia)) (UniProt Q8R4B8). In words: proximity ligation; Duo-link PLA in fixed mouse primary microglia with antibodies against NLRP3 and TXNIP; cells treated with αSynagg or vehicle (18 h in the methods, 24 h in the legend); puncta quantified with ImageJ.
Test [2] has the same target. In words: co-IP; endogenous proteins in cell lysate (TNE buffer: 10 mM Tris-HCl pH 7.5, 1% Nonidet P-40, 0.15 M NaCl, 1 mM EDTA), protein A/G magnetic beads; cells treated with αSynagg or vehicle; legend: IP with NLRP3, immunoblot with TXNIP antibody; methods: IP with anti-TXNIP antibody.

B1: Thioredoxin-interacting protein (TXNIP) (protein, UniProt Q8BG60 1-397)
chain: MVMFKKIKSFEVVFNDPEKVYGSGEKVAGRVIVEVCEVTRVKAVRILACGVAKVLWMQGSQQCKQTLDYLRYEDTLLLEEQPTAGENEMVIMRPGNKYEYKFGFELPQGPLGTSFKGKYGCVDYWVKAFLDRPSQPTQEAKKNFEVMDLVDVNTPDLMAPVSAKKEKKVSCMFIPDGRVSVSARIDRKGFCEGDDISIHADFENTCSRIVVPKAAIVARHTYLANGQTKVFTQKLSSVRGNHIISGTCASWRGKSLRVQKIRPSILGCNILKVEYSLLIYVSVPGSKKVILDLPLVIGSRSGLSSRTSSMASRTSSEMSWIDLNIPDTPEAPPCYMDIIPEDHRLESPTTPLLDDVDDSQDSPIFMYAPEFQFMPPPTYTEVDPCVLNNNNNNNNVQ
Consider B1, for which the binding entry in test [1] and in test [2] was “binds” in each case.
